Reference: PubChem BioAssay AID504467 (National Center for Advancing Translational Sciences (NCATS), 2011)
Among all 330,000 compounds or so, about 7,700 (2.3%) were called active. The inconclusive results got no clear call from the source; some entries with a clear call stand among them for comparison. The call rests on the fitted dose curve; in most records, active means well fitted inhibition curve with a large enough effect; inconclusive means small, poorly fitted or top-dose-only effect, or effect the other way; inactive means flat fitted curve, though single readings scatter. A potency beside an inconclusive call is a rough fit, not a confirmed value.

test: qHTS screen for small molecules that inhibit ELG1-dependent DNA repair in human embryonic kidney (HEK293T) cells expressing luciferase-tagged ELG1; settings: HEK293T ELG1-luciferase reporter, luminescence, 16 h, DNA damage induced by 5-fluorouridine; activity change, negative = inhibition: at 46.1 µM (top of the series); further: nearly all actives have a fitted effect of over 55% in size
Outline: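 5-Fluorouridine DNA damage + compound/DMSO, 2,000 cells/well, 16 h, 37 °C/5% CO2. ONE-Glo, 30 min RT, luminescence. Readout = decrease in reporter signal.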
On the % scale 0 is the no-effect control and ±100 the full control effect; potency means the concentration at half of the fitted maximal effect.

Row | SMILES | Potency | activity change, negative = inhibition
1 | COCCn1c(C)cc(C(=O)COC(=O)Cc2n[nH]c(=O)c3ccccc23)c1C | inconclusive: 2.31 µM [activator, partial curve] | –
2 | CCCc1ccc(Oc2c(-c3ccc(O)c(C)c3O)n[nH]c2C)cc1 | inconclusive: 15.8 µM [inhibitor, partial curve, poor fit] | –
3 | CNC(=O)n1cc(C)c(-c2cccs2)n1 | inconclusive: 18.3 µM [activator, partial curve, poor fit] | –
4 | O=C(Nc1ncc([N+](=O)[O-])s1)c1ccco1 | inconclusive: 16.4 µM [activator, partial curve] | –
5 | COc1ccc(Cn2c(=O)[nH]c3cc(C(=O)Nc4ccc(N5CCN(C)CC5)cc4)ccc32)cc1 | – | inactive: -0.888%
6 | COc1cc(-c2noc(C)c2/C=C/c2ccc(C(=O)O)cc2)cc(OC)c1OC | – | inactive: -4.63%
7 | COc1ccc(S(=O)(=O)N(CC(=O)NC2CC3CCC2C3)c2ccccc2OC)cc1 (centres undefined) | – | inactive: -14.3%
8 | COc1ccc(OCCC(=O)N2CCOCC2)cc1 | inconclusive: 29.1 µM [activator, single point] | –
9 | COc1ccc(OCC(=O)Nc2cccc(-c3nc4ccccc4[nH]3)c2)cc1 | inconclusive: 29.1 µM [inhibitor, single point] | –
10 | COc1ccccc1C1=NOC(Cn2c(NCCOCCO)nc3c2c(=O)n(C)c(=O)n3C)C1 (centres undefined) | inconclusive: 20.6 µM [inhibitor, single point] | –
11 | COc1ccccc1N1CCN(Cc2ccc(-c3ccccc3[N+](=O)[O-])o2)CC1 | – | inactive: -16.4%
12 | O=c1c2cc(N3CCOCC3)ccc2[nH]c(=S)n1Cc1ccccc1Cl | inconclusive: 23.1 µM [activator, partial curve, poor fit] | –
13 | CCN(CC(=O)NCc1ccc(F)cc1)C(=O)CN1CCN(c2ccc(OC)cc2)CC1 | – | inactive: -13.8%
14 | Cc1cccc(C(=O)NC(=S)NNC(=O)c2ccc(Cl)cc2)c1 | inconclusive: 25.9 µM [activator, single point] | –
15 | O=C(NC1=NCCS1)c1cc(-c2ccc(-c3ccccc3)cc2)nc2ccccc12 | inconclusive: 5.8 µM [activator, partial curve] | –
16 | CC(C)CN1CCN(Cc2c[nH]c3ccccc23)CC1CCO (centres undefined) | inconclusive: 0.1 µM [activator, full curve, poor fit] | –
17 | C/C(=N\NC(=O)Cc1ccc(F)cc1)c1ccc(O)cc1 | inconclusive: 10.3 µM [inhibitor, partial curve, poor fit] | –
18 | COC(c1ccccc1)c1nc2ccccc2[nH]c1=O (centres undefined) | inconclusive: 20.6 µM [activator, partial curve] | –
19 | c1ccc(Nc2nc(N3CCCCC3)nc(N3CCNCC3)n2)cc1 | – | inactive: 3.4%
20 | CCOC(=O)N1CCN(C2CCCN(C(=O)c3cccc(N(C)C)c3)C2)CC1 (centres undefined) | – | inactive: 14.3%
21 | Cc1sc2nc(CN(C(=O)NCc3ccccc3)C3CCCC3)[nH]c(=O)c2c1C | inconclusive: 20.6 µM [inhibitor, partial curve, poor fit] | –
22 | Cc1cccc(C)c1NC(=O)CSc1nnc(-c2ccoc2C)n1CCc1ccccc1 | inconclusive: 20.6 µM [inhibitor, partial curve] | –

Row | SMILES | Potency | activity change, negative = inhibition
23 | O=C(CSc1ccccc1C(=O)O)NC12CC3CC(CC(C3)C1)C2 | inconclusive: 9.2 µM [activator, partial curve, poor fit] | –
24 | OCc1ccnc2c(O)cccc12 | inconclusive: 9.2 µM [inhibitor, partial curve, poor fit] | –
25 | CCOC(=O)N1CCC(N(CCCOC)C(=O)Nc2ccc(CC)cc2)CC1 | – | inactive: -6.38%
26 | Cc1cc(C)n(-c2cccc(CN(C)Cc3nc(-c4cnccn4)no3)c2)n1 | inconclusive: 23.1 µM [inhibitor, single point] | –
27 | O=C(CC1Nc2ccccc2NC1=O)Nc1ccccc1 (centres undefined) | inconclusive: 16.4 µM [activator, partial curve] | –
28 | C/C(=N\NC(=O)c1c(Br)c(C)nn1C)c1cccc(NC(=O)c2ccccc2F)c1 | inconclusive: 11.6 µM [inhibitor, partial curve] | –
29 | Cc1ccc(NC(=O)c2ccccc2NS(=O)(=O)c2ccc(Cl)s2)cc1 | inconclusive: 2.06 µM [inhibitor, single point] | –
30 | Cc1cc(C)cc(NC(=S)N2CCN(c3ncc(C(F)(F)F)cc3Cl)CC2)c1 | – | inactive: 29.2%
31 | CCC(=O)N1N=C(c2cccc(NS(C)(=O)=O)c2)CC1c1cccs1 (centres undefined) | active: 23.1 µM | –
32 | CSc1cccc(NC(=O)Nc2nc3c(C)cccc3s2)c1 | – | inactive: 0.154%
33 | Cc1c(C(=O)CN2CCCC(C)(C)C2)c2ccccc2n1C | – | inactive: -3%
34 | NC(=S)Nc1cccc2[nH]ccc12 | inconclusive: 0.164 µM [inhibitor, single point] | –
35 | COC(CNC(=O)c1ccc(CS(=O)(=O)c2c(Cl)cccc2Cl)o1)OC | – | inactive: 1.17%
36 | Brc1ccc(Oc2ncc(CN3CCOCC3)s2)cc1 | inconclusive: 20.6 µM [activator, partial curve] | –
37 | COc1cccc(C(=O)OCC(=O)N2CCC(Cc3ccccc3)CC2)c1OC | inconclusive: 29.1 µM [inhibitor, single point] | –
38 | CCN(CC(=O)Nc1ccc(OC)cc1)C(=O)CSCC(=O)Nc1ccc(C)cc1 | – | inactive: -0.334%
39 | COC(=O)c1ccc(CN2CCC(CO)(Cc3ccccc3Cl)CC2)cc1 | inconclusive: 25.9 µM [inhibitor, single point] | –
40 | Cc1sc(NC(=O)CS(=O)(=O)c2ccccc2)c(C#N)c1C | inconclusive: 11.6 µM [activator, single point] | –
41 | CC1CCC(NC(=O)Cn2cnc3sccc3c2=O)CC1 (centres undefined) | inconclusive: 25.9 µM [activator, single point] | –
42 | COc1ccc(S(=O)(=O)N(C)CC(=O)Nc2cccc(C(C)=O)c2)cc1Cl | inconclusive: 23.1 µM [inhibitor, partial curve, poor fit] | –
43 | O=C(Cn1c(=O)sc2ccccc21)Nc1ccc(S(=O)(=O)N2CCCCC2)cc1 | inconclusive: 9.2 µM [inhibitor, partial curve, poor fit] | –
44 | CC(C)OC(=O)CN1C(=O)C(C)(C)Oc2ccc(C(=O)NC(C)(C)C)cc21 | inconclusive: 20.6 µM [inhibitor, single point] | –

By substructure, those above containing a nitro group on carbon.
Row | SMILES | Potency | activity change, negative = inhibition
4 | O=C(Nc1ncc([N+](=O)[O-])s1)c1ccco1 | inconclusive: 16.4 µM [activator, partial curve] | –
11 | COc1ccccc1N1CCN(Cc2ccc(-c3ccccc3[N+](=O)[O-])o2)CC1 | – | inactive: -16.4%
